Test results published in US20110152166A1, “METHOD OF MODULATION OF PROTEIN PHOSPHORYLATION-DEPENDENT CONFORMATIONAL TRANSITIONS WITH LOW MOLECULAR WEIGHT COMPOUNDS” (priority 2006, published 2011).
Values joined by “and” are separate entries in the source; they are usually repeats but may differ in a detail not shown here. Equal values may be shown once. Not every detail of the peptide structures is certain; ends, links or a residue may be inferred. Square brackets hold non-standard residues; d marks the D form. Peptide text beside a SMILES is read from it. * marks the point of attachment. Biotin = O=C1N[C@H]2[C@H](CS[C@H]2CCCCC(=O)*)N1; pT = C[C@@H](OP(=O)(O)O)[C@H](N)C(=O)O; pS = N[C@@H](COP(=O)(O)O)C(=O)O

How the values were obtained:
PDK1 CD wt (50-360) = biological target: T1, PDK1 CD wt (50-360) (Homo sapiens, UniProt O15530); experiment: Surface plasmon resonance, PDK1 CD binding to biotin-P-HM-S6K; conditions: estimated from response units at equilibrium
T1 construct: the catalytic domain of PDK1 (50-359) produced in SF9 insect cells; His-tag (N, cleaved yes); made in house; host or cells: SF9 insect cells (baculovirus)
T1 sequence (O15530 50-359): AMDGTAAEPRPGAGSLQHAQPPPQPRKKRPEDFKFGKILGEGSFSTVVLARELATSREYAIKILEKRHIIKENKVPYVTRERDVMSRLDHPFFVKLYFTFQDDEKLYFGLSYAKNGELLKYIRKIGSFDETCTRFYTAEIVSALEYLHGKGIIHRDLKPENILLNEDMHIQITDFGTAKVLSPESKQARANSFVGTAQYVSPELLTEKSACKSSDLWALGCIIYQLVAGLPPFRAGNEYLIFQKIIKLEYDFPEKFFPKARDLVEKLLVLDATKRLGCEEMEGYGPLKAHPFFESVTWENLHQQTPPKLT

GST-PDK1 1-556 = biological target: T2, GST-PDK1 1-556 (Homo sapiens, UniProt O15530); experiment: Surface plasmon resonance, GST-PDK1 binding to biotin-PIFtide and displacement by compounds; conditions: BiaCore, streptavidin chip; read-out: KD / affinity of PDK1 interaction with biotin-PIFtide
T2 construct: made in house; host or cells: HEK293
T2 sequence (O15530 1-556): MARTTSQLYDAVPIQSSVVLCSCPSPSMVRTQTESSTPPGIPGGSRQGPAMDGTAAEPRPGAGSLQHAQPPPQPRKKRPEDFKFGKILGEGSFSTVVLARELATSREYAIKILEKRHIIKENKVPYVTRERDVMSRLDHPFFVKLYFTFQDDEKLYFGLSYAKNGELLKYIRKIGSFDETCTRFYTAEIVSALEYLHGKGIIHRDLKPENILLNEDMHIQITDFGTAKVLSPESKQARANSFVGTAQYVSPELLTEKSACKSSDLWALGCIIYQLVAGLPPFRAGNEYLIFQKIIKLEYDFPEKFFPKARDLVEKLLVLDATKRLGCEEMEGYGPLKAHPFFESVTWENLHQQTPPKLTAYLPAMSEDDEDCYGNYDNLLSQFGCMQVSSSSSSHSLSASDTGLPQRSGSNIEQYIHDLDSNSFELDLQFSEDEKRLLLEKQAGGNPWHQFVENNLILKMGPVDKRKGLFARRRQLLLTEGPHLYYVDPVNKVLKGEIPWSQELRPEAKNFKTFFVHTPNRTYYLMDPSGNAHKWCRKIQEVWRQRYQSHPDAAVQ
Method: FIG. 3—Small compounds displace the binding of PDK1 1-556 to the HM peptide derived from its substrate PRK2, PIFtide. Surface plasmon resonance measurements were carried out on a BiaCore system to measure the interaction between GST-PDK1 and biotin-PIFtide coupled to a streptavidin-coated chip. (A) Direct measurement of PDK1 interaction with biotin-PIFtide. PDK1 was injected at the indicated concentrations (nM). For the following competition experiments, PDK1 45 nM was used. (B) PDK1 interaction with biotin-PIFtide was abolished by pre-incubation with PIFtide. […] The data points represent the maximal response units obtained after 30 s injection in the presence of the indicated concentration of compound. In (A) and (B) the spikes at the start and end of injection have been eliminated for clarity.
Binding of PDK1 to PIFtide was analysed by surface plasmon resonance on a BiaCore 3000 system using a streptavidin-coated Sensor chip (SA) and biotin-PIFtide, as previously described (Biondi et al., 2001). Biotin-PIFtide was bound to the chip to a level of 15 to 25 response units in different experiments. GST-PDK1 bound to biotin-PIFtide with an affinity of 90 nM, in good agreement with previous data obtained using the BiaCore system. […]

Structure (SMILES) | Kd (PDK1 CD wt (50-360)) | Kd (GST-PDK1 1-556)
CC(C)C[C@H](NC(=O)[C@H](Cc1ccccc1)NC(=O)[C@@H](NC(=O)[C@H](CCC(N)=O)NC(=O)[C@H](CC(N)=O)NC(=O)[C@H](C)NC(=O)[C@H](CO)NC(=O)[C@H](CCC(=O)O)NC(=O)[C@H](CO)NC(=O)[C@H](CC(C)C)NC(=O)[C@@H](NC(=O)[C@H](CO)NC(=O)[C@H](CC(=O)O)NC(=O)[C@H](CC(=O)O)NC(=O)[C@@H]1CCCN1C(=O)[C@H](COP(=O)(O)O)NC(=O)[C@H](CC(=O)O)NC(=O)[C@@H](NC(=O)[C@@H]1CCCN1C(=O)[C@@H](NC(=O)[C@H](CCC(N)=O)NC(=O)[C@H](CCCCN)NC(=O)CCCC[C@@H]1SC[C@@H]2NC(=O)N[C@@H]21)[C@@H](C)O)C(C)C)[C@@H](C)O)C(C)C)C(=O)NCC(=O)N[C@@H](Cc1ccccc1)C(=O)N[C@H](C(=O)N[C@@H](Cc1ccc(O)cc1)C(=O)N[C@H](C(=O)N[C@@H](C)C(=O)N1CCC[C@H]1C(=O)N[C@@H](CO)C(=O)N[C@H](C(=O)O)C(C)C)C(C)C)[C@@H](C)OP(=O)(O)O [biotin-P-HM-S6K] (Biotin-KQTPVD[pS]PDDSTLSESANQVFLGF[pT]YVAPSV-OH; C-terminus assumed) | 50 nM | 
CC[C@H](C)[C@H](NC(=O)[C@H](Cc1ccc(O)cc1)NC(=O)[C@H](CC(=O)O)NC(=O)[C@H](Cc1ccccc1)NC(=O)[C@H](CC(=O)O)NC(=O)[C@H](CCCNC(=N)N)NC(=O)[C@H](Cc1ccccc1)NC(=O)[C@H](CCSC)NC(=O)[C@H](CCC(=O)O)NC(=O)[C@H](CCC(N)=O)NC(=O)[C@H](CCC(=O)O)NC(=O)[C@H](CCC(=O)O)NC(=O)[C@H](CCC(=O)O)NC(=O)[C@H](CO)NC(=O)[C@H](CC(C)C)NC(=O)[C@@H](NC(=O)[C@H](CCCNC(=N)N)NC(=O)[C@@H]1CCCN1C(=O)[C@H](CCC(=O)O)NC(=O)[C@H](CCCNC(=N)N)NC(=O)CCCC[C@@H]1SC[C@@H]2NC(=O)N[C@@H]21)[C@@H](C)CC)C(=O)N[C@@H](C)C(=O)N[C@@H](CC(=O)O)C(=O)N[C@@H](Cc1c[nH]c2ccccc12)C(=O)N[C@@H](CS)C(=O)O [biotin-PIFtide] (Biotin-REPRILSEEEQEMFRDFDYIADWC-OH; N-terminus and C-terminus assumed) |  | 90 nM and ~65 nM
